Experimental data: paper PMC9825183, “A cap 0-dependent mRNA capture method to analyze the yeast transcriptome”
Results are given in words; binding and its absence hold for the method and conditions named. Some results given as binding are weak or reduced against the parent protein; the word gives no strength.

Target: T1, Cbp80 (YMR125W; STO1; CBC1), large subunit of the yeast nuclear cap binding complex (S. cerevisiae) (UniProt P34160)
T1 sequence: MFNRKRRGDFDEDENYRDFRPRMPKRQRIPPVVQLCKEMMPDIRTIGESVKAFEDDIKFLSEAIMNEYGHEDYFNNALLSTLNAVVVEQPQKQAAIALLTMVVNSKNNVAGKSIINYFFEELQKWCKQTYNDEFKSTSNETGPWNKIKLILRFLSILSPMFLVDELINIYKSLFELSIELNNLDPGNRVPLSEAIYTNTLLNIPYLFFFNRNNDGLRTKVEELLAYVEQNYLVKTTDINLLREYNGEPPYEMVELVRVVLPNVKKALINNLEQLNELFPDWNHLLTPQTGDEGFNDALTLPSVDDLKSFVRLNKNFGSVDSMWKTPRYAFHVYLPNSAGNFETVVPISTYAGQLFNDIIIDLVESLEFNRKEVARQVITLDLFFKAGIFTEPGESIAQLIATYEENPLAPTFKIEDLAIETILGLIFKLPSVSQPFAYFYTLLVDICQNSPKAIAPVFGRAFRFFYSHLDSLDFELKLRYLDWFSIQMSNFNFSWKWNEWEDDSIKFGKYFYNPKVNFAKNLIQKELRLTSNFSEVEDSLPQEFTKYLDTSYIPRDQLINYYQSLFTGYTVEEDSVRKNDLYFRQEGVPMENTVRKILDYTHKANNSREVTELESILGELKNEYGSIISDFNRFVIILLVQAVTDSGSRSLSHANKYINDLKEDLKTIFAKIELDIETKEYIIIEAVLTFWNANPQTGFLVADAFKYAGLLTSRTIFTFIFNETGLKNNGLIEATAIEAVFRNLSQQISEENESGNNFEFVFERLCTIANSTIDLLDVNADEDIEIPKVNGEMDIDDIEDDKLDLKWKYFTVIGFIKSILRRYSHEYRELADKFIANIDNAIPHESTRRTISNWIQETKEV
Assay: co-purification (nickel affinity, then SEC); Cbp80 and Cbp20 co-expressed in E. coli from one operon in the pET28M N-6xHis-SUMO vector; Ni-NTA Superflow with washes of 200 mM and 1 M NaCl, elution with 300 mM imidazole; then Superdex 200 10/300 GL in 0.1 M NaHCO3 pH 8.3 with 0.5 M NaCl, or PBS with 0.5 M NaCl

binding: binds
B1: Cbp20 (YPL178W; CBC2), small subunit of the yeast nuclear cap binding complex (protein, UniProt Q08920 1-208)
chain: MSLEEFDEVKYDHSTKRLDTPSRYLLRKARRNPNGLQELRESMKSSTIYVGNLSFYTSEEQIYELFSKCGTIKRIIMGLDRFKFTPCGFCFIIYSCPDEALNALKYLSDTKLDEKTITIDLDPGFEDGRQFGRGKSGGQVSDELRFDFDASRGGFAIPFAERVGVPHSRFDNSSSQSNTNNYIPPPDAMGTFRPGFDEEREDDNYVPQ
